Experimental data: PubChem BioAssay AID504774 (Drosophila RNAi Screening Center, 2011)
Screen: 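Knock-downs that shift viability of MMS-exposed cells relative to untreated ones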 (primary screen). Cell system: Drosophila Kc167 cells. Knock-down reagent: long dsRNA against Drosophila genes, about 0.25 µg dsRNA per well. Time to read-out: about 6 days: 3 days knock-down, then 3 days with or without MMS. Conditions: methyl methanesulphonate 0.004% (w/v) for 3 days after knock-down. Detection: 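Viability in wells given MMS, read as ATP luminescence, normalised by quantiles plate by plate and averaged across replicates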. Reading the numbers: mean viability with MMS and viability with MMS: higher = more surviving cells after MMS.
In all, the deposit lists about 23,000 reagents; this is an unselected part of those with a known target gene and a result. 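Values are quantile-normalised luminescence on an arbitrary scale; higher means more cells surviving MMS.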 A plus sign joins genes that one reagent is predicted to hit. Not all columns of the deposit are shown.

| Target gene | DRSC id | mean viability with MMS | viability with MMS, replicate 1 |
| --- | --- | --- | --- |
| His2B:CG33870 + His2B:CG33868 + His2B:CG33882 + 21 more | DRSC03757 | 3.02e6 | 3.61e6 |
| CG14810 | DRSC17693 | 3.43e6 | 3.91e6 |
| CG14810 | DRSC17961 | 3.46e6 | 3.97e6 |
| Scgalpha | DRSC03076 | 3.77e6 | 4.50e6 |
| CG17681 | DRSC02632 | 3.50e6 | 4.02e6 |
| SdhBL | DRSC20039 | 3.61e6 | 3.99e6 |
| lncRNA:roX1 | DRSC21884 | 3.57e6 | 4.07e6 |
| sloth2 + sloth1 | DRSC17922 | 3.49e6 | 3.94e6 |
| sloth2 + sloth1 | DRSC17923 | 3.50e6 | 4.04e6 |
| pes | DRSC03033 | 3.67e6 | 4.14e6 |
| Rm62 | DRSC12365 | 3.23e6 | 3.65e6 |
| Ccdc58 | DRSC10218 | 3.75e6 | 4.26e6 |
| Dph1 | DRSC09851 | 3.57e6 | 4.08e6 |
| CG2225 | DRSC03722 | 3.66e6 | 4.15e6 |
| CG2225 | DRSC03723 | 3.45e6 | 4.01e6 |
| CG12011 | DRSC08219 | 3.61e6 | 4.03e6 |
| CG42380 + CG42379 + PIG-M + 1 more | DRSC03884 | 3.38e6 | 3.75e6 |
| CG42380 + CG42379 + PIG-M + 1 more | DRSC04580 | 3.41e6 | 3.77e6 |
| Larp4B | DRSC08192 | 3.19e6 | 3.62e6 |
| Larp4B | DRSC23201 | 3.62e6 | 4.11e6 |
| mago | DRSC04703 | 2.98e6 | 3.63e6 |
| CG13192 | DRSC06317 | 3.47e6 | 3.89e6 |
| Rift | DRSC14330 | 3.59e6 | 4.12e6 |
| DNAlig4 | DRSC19436 | 3.45e6 | 3.86e6 |
| CG1636 | DRSC18111 | 3.65e6 | 4.09e6 |
| Trxr1 | DRSC18668 | 3.47e6 | 3.68e6 |
| Trxr1 | DRSC22293 | 3.53e6 | 3.96e6 |
| CG17266 | DRSC04979 | 3.41e6 | 3.79e6 |
| CG17266 | DRSC22368 | 3.44e6 | 3.87e6 |
| Pp1alpha-96A | DRSC16795 | 3.45e6 | 3.88e6 |
| Pp1alpha-96A | DRSC23320 | 3.68e6 | 4.21e6 |
| FIG4 | DRSC00515 | 3.26e6 | 3.66e6 |
| Usp1 | DRSC14155 | 3.53e6 | 4.02e6 |
| Ance-2 | DRSC02539 | 3.55e6 | 4.03e6 |
| DNAlig1 | DRSC04518 | 3.26e6 | 3.79e6 |
| Tim17a2 | DRSC12252 | 3.63e6 | 4.12e6 |
| CstF50 | DRSC15434 | 3.43e6 | 3.99e6 |
| PpV | DRSC18700 | 3.32e6 | 3.82e6 |
| PpV | DRSC23307 | 3.47e6 | 3.97e6 |
| CG3734 | DRSC15509 | 3.51e6 | 3.98e6 |
| CG34159 | DRSC02885 | 2.90e6 | 3.53e6 |
| CG34159 | DRSC23222 | 3.73e6 | 4.30e6 |
| CG6276 | DRSC16007 | 3.47e6 | 3.91e6 |
| CG31601 | DRSC03678 | 3.41e6 | 3.92e6 |
| CG18128 | DRSC04304 | 3.53e6 | 3.91e6 |
| NLaz | DRSC21521 | 3.68e6 | 4.18e6 |
| dgo | DRSC06134 | 3.57e6 | 3.94e6 |
| CG31792 | DRSC02604 | 3.55e6 | 4.06e6 |
| Cpr72Ec | DRSC10449 | 3.64e6 | 4.16e6 |
| Itpr | DRSC12354 | 3.53e6 | 4.04e6 |
| CG32267 | DRSC21561 | 3.57e6 | 4.02e6 |
| CG13492 | DRSC04137 | 3.60e6 | 4.11e6 |
| se | DRSC10713 | 3.65e6 | 4.21e6 |
| kmg | DRSC02829 | 3.66e6 | 4.09e6 |
| CG34334 | DRSC20643 | 3.73e6 | 4.29e6 |
| D19A | DRSC11133 | 3.34e6 | 3.79e6 |
| CG5768 | DRSC15870 | 3.55e6 | 4.00e6 |
| CG30284 | DRSC22150 | 3.27e6 | 3.85e6 |
| Spt5 | DRSC07556 | 3.21e6 | 3.63e6 |
| Csp | DRSC11860 | 3.66e6 | 4.05e6 |
| bwa | DRSC01749 | 3.48e6 | 3.96e6 |
| bwa | DRSC02310 | 3.60e6 | 4.00e6 |
| CG12590 | DRSC12216 | 3.48e6 | 3.96e6 |
| CG42390 | DRSC15866 | 3.29e6 | 3.71e6 |
| CG42390 | DRSC23064 | 3.52e6 | 3.95e6 |
| CG42390 | DRSC23065 | 3.18e6 | 3.59e6 |
| Arpc4 | DRSC02917 | 3.26e6 | 3.80e6 |
| CG11898 | DRSC14432 | 3.71e6 | 4.10e6 |

Records listed so far whose gene name begins with L or l (3):
| Target gene | DRSC id | mean viability with MMS | viability with MMS, replicate 1 |
| --- | --- | --- | --- |
| lncRNA:roX1 | DRSC21884 | 3.57e6 | 4.07e6 |
| Larp4B | DRSC08192 | 3.19e6 | 3.62e6 |
| Larp4B | DRSC23201 | 3.62e6 | 4.11e6 |
